{"source": "patent US8241674B2", "about": "“Methods and compositions for heavy metal detoxification” (priority 2007, dated 2012)", "key": {"heme oxygenase (HMOX1)": {"test_system": "heme oxygenase (HMOX1)", "details": "HepG2 cells, text summary of Table 7, rank order"}, "[1]": {"test_system": "phase II enzymes (GSTA1 and NQO1)", "details": "HepG2 cells, text summary of Table 7, rank order"}, "NQO1 enzyme": {"test_system": "NQO1 enzyme", "experiment": "NADPH quinone oxido reductase (NQO1) activity assay in RL-34 cell lysate after treatment", "details": "RL-34 cell line"}, "[2]": {"test_system": "heme oxygenase (HO-1) luciferase reporter", "experiment": "Heme oxygenase (HO-1) luciferase reporter in HepG2 cells", "details": "HepG2 cell line; thirty percent induction over DMSO control considered active"}, "GST enzyme": {"test_system": "GST enzyme", "experiment": "GST activity assay in RL-34 cell lysate after treatment", "assay_type": "cell-based, rat", "details": "RL-34 cell line"}, "[3]": {"test_system": "metallothionein (MT 1, 2)", "details": "HepG2 cells, text summary of Table 7, rank order"}}, "note": "For some of these results: At least one compound was matched to its structure with a doubt left. Some entries share one result that the patent states for a list of compounds.", "data": [{"smiles": "C=C1CC[C@@H]2[C@](C)(CO)[C@H](O)CC[C@@]2(C)[C@@H]1C/C=C1/C(=O)OC[C@H]1O", "note": "[Andrographis, 3-(2-(Decahydro-6-hydroxy-5-(hydroxymethyl)-5,8a-dimethyl-2-methylenenaphthyl)ethylidene)dihydro-4-hydroxyfuran-2(3H)-one]", "values": [{"measurement": "HMOX1 gene expression increased over DMSO control", "setting": "heme oxygenase (HMOX1)", "value": "≥ 20", "unit": "%"}, {"measurement": "phase II gene expression increased over DMSO control", "setting": "[1]", "value": "≥ 20", "unit": "%"}, {"measurement": "NQO1 enzymatic activity induced over DMSO control", "setting": "NQO1 enzyme; 25 μg/ml", "value": "≥ 20", "unit": "%"}, {"measurement": "expression of heme oxygenase promoter activity (in words)", "setting": "[2]", "value": "induced"}, {"measurement": "GST activity induced over DMSO control", "setting": "GST enzyme; 25 μg/ml", "value": "≥ 20", "unit": "%"}]}, {"smiles": "COc1ccc2cc3[n+](cc2c1OC)CCc1cc2c(cc1-3)OCO2", "note": "[Berberine]", "values": [{"measurement": "NQO1 enzymatic activity induced over DMSO control", "setting": "NQO1 enzyme; 20 μg/ml", "value": "≥ 20", "unit": "%"}]}, {"smiles": "O=c1c(-c2ccc(O)cc2)coc2cc(O)cc(O)c12", "note": "[Bonistein]", "values": [{"measurement": "NQO1 enzymatic activity induced over DMSO control", "setting": "NQO1 enzyme; 20 μg/ml", "value": "≥ 20", "unit": "%"}]}, {"smiles": "COc1cc(C=CC(=O)CC(=O)C=Cc2ccc(O)c(OC)c2)ccc1O", "note": "[Curcumin, 1,7-Bis(4-hydroxy-3-methoxyphenyl)hepta-1,6-diene-3,5-dione]", "values": [{"measurement": "HMOX1 gene expression increased over DMSO control", "setting": "heme oxygenase (HMOX1)", "value": "≥ 20", "unit": "%"}, {"measurement": "phase II gene expression increased over DMSO control", "setting": "[1]", "value": "≥ 20", "unit": "%"}, {"measurement": "NQO1 enzymatic activity induced over DMSO control", "setting": "NQO1 enzyme; 5 μg/ml", "value": "≥ 20", "unit": "%"}]}, {"smiles": "c1ccc2c(Cc3c[nH]c4ccccc34)c[nH]c2c1", "note": "[DIM]", "values": [{"measurement": "NQO1 enzymatic activity induced over DMSO control", "setting": "NQO1 enzyme; 25 μg/ml", "value": "≥ 20", "unit": "%"}]}, {"smiles": "OCc1c[nH]c2ccccc12", "note": "[I3C]", "values": [{"measurement": "NQO1 enzymatic activity induced over DMSO control", "setting": "NQO1 enzyme; 25 μg/ml", "value": "≥ 20", "unit": "%"}]}, {"smiles": "O=c1c(O)c(-c2ccc(O)c(O)c2)oc2cc(O)cc(O)c12", "note": "[Quercitin]", "values": [{"measurement": "NQO1 enzymatic activity induced over DMSO control", "setting": "NQO1 enzyme; 20 μg/ml", "value": "≥ 20", "unit": "%"}]}, {"smiles": "Oc1ccc(C=Cc2cc(O)cc(O)c2)cc1", "note": "[Resveratrol]", "values": [{"measurement": "NQO1 enzymatic activity induced over DMSO control", "setting": "NQO1 enzyme; 20 μg/ml", "value": "≥ 20", "unit": "%"}]}, {"smiles": "COc1cc(O)c(CC=C(C)C)c(O)c1C(=O)/C=C/c1ccc(O)cc1", "note": "[Xanthohumol]", "values": [{"measurement": "MT gene expression increased over DMSO control", "setting": "[3]", "value": "≥ 20", "unit": "%"}, {"measurement": "HMOX1 gene expression increased over DMSO control", "setting": "heme oxygenase (HMOX1)", "value": "≥ 20", "unit": "%"}, {"measurement": "NQO1 enzymatic activity induced over DMSO control", "setting": "NQO1 enzyme; 1 μg/ml", "value": "≥ 20", "unit": "%"}, {"measurement": "GST activity induced over DMSO control", "setting": "GST enzyme; 1 μg/ml", "value": "≥ 20", "unit": "%"}]}, {"smiles": "O=C(/C=C/c1ccc(O)c(O)c1)O[C@@H]1C[C@](O)(C(=O)O)C[C@@H](O)[C@H]1O", "note": "[chlorogenic acid]", "values": [{"measurement": "NQO1 enzymatic activity induced over DMSO control", "setting": "NQO1 enzyme; 25 μg/ml", "value": "≥ 20", "unit": "%"}]}]}
